According to patent US20150098941A1:
No constants are given. Whether binding was seen depends on the method and setting. Some binding calls cover weakened binding; strength is not graded here. Where a sequence is shown, tags or fusion partners need not be part of it.

The chains behind the UniProt entries cited, without tags or fusion partners. Where a name states a change or a piece, a line headed by the entry shows the natural chain unless it says otherwise.
UniProt P51654: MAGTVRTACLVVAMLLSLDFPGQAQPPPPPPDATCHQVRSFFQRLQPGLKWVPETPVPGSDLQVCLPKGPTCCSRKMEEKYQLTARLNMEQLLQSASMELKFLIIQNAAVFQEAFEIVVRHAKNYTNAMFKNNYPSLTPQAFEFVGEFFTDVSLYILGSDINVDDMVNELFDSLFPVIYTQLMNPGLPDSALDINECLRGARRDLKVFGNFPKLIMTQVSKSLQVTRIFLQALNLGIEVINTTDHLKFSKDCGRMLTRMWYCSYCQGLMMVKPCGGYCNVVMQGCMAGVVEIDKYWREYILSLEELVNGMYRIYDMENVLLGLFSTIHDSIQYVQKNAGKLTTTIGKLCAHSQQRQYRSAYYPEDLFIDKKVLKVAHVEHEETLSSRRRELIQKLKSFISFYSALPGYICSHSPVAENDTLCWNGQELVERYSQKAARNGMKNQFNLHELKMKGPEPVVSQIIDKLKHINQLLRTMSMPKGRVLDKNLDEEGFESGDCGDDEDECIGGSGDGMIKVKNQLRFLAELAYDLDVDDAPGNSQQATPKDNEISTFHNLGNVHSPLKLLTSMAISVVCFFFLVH

Target: fused protein GST-GPC3 (GST and human glypican-3 peptide of SEQ ID NO: 16) (human) (UniProt P51654)
Test: SPR (BIACORE 3000), CHO culture supernatant over immobilized GST-GPC3

B1: Fc-modified humanized anti-GPC3 antibody V1608 (S239D/S298A/K326T/I332E as printed in the table) (antibody, human IgG1, V domains shown)
VH: QVQLVQSGAEVKKPGASVKVSCKASGYTFTDYEMHWVRQAPGQGLEWMGALDPKTGDTAYSQKFKGRVTLTADKSTSTAYMELSSLTSEDTAVYYCTRFYSYTYWGQGTLVTVSS
VL: DVVMTQSPLSLPVTPGEPASISCRSSQSLVHSNGNTYLHWYLQKPGQSPQLLIYKVSNRFSGVPDRFSGSGSGTDFTLKISRVEAEDVGVYYCSQNTHVPPTFGQGTKLEIK
  binding: binds
